Test results published in paper PMC11242348.
Results are given in words; binding and its absence hold for the method and conditions named. Binding seen in cells or lysates may run through a third protein. Some entries that bind do so weakly or less than the wild type.

Amino acid sequences for entries named in this document (tags omitted).
UniProt P38936: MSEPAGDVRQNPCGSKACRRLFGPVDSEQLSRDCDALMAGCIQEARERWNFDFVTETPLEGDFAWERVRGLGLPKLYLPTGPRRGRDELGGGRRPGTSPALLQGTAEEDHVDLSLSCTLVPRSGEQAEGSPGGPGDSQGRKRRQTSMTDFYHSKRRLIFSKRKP

Molecular target: p21 (human (endogenous in HCC cell lines)) (UniProt P38936)
Assay: co-IP; 300 µg total protein lysate with 2 µg antibody against the protein of interest or control IgG overnight at 4°C; Protein A/G Plus-Agarose beads; four washes with IP lysis buffer; Western blot

- binding: binds
B1: IRF7 (protein, UniProt Q92985 1-503)
chain: MALAPERAAPRVLFGEWLLGEISSGCYEGLQWLDEARTCFRVPWKHFARKDLSEADARIFKAWAVARGRWPPSSRGGGPPPEAETAERAGWKTNFRCALRSTRRFVMLRDNSGDPADPHKVYALSRELCWREGPGTDQTEAEAPAAVPPPQGGPPGPFLAHTHAGLQAPGPLPAPAGDKGDLLLQAVQQSCLADHLLTASWGADPVPTKAPGEGQEGLPLTGACAGGPGLPAGELYGWAVETTPSPGPQPAALTTGEAAAPESPHQAEPYLSPSPSACTAVQEPSPGALDVTIMYKGRTVLQKVVGHPSCTFLYGPPDPAVRATDPQQVAFPSPAELPDQKQLRYTEELLRHVAPGLHLELRGPQLWARRMGKCKVYWEVGGPPGSASPSTPACLLPRNCDTPIFDFRVFFQELVEFRARQRRGSPRYTIYLGFGQDLSAGRPKEKSLVLVKLEPWLCRVHLEGTQREGVSSLDSSSLSLCLSSANSLYDDIECFLMELEQPA
